PubChem BioAssay AID1347076 (National Center for Advancing Translational Sciences (NCATS), 2019)
In all, about 400,000 compounds went through this assay and about 13,000 (3.2%) were called active. The inconclusive results got no clear call from the source; some entries with a clear call stand among them for comparison. Calls come from the whole dose curve; as a rule, active = well fitted cell-killing curve with a large enough effect; inconclusive = small, poorly fitted or top-dose-only effect, or effect the other way; inactive = flat fitted curve, though single readings scatter. Potencies of inconclusive entries are doubtful fits and often do not repeat.
Potency is the fitted concentration of half-maximal effect.

Assay: qHTS assay for MDR1-selective chemotherapeutics: Primary screen using the drug-selected MDR subline cells KB-V1; note: nearly all actives have a fitted effect of over 60% in size
Details: KB-V1 MDR cells viability, CellTiter-Glo, 72 h; series mostly up to 46.1 µM
Method in brief: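 KB-V1, DMEM (no phenol red) + 10% FBS; cpd pin-transferred, titration series; 72 h, 37 degrees C; CellTiter-Glo, luminescence. Data normalized, curve-fit.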
In the case of CCOC(=O)N/N=C/c1cc(C)n(-c2cccc3ccccc23)c1C, the Potency is reported as inconclusive: 29.1 µM [cytotoxic, single point]. In the case of O=C(Nc1cccc2ccccc12)N1N=CCC1c1ccccc1 (stereo unspecified), the Potency is reported as inconclusive: 29.1 µM [cytotoxic, single point]. In the case of COc1ccc(CNC(=O)C2CCN(C(=O)N3CCOc4ccc(Cl)cc43)CC2)cc1, the Potency is reported as “inactive”. For O=S(=O)(Nc1ccc(C(O)(C(F)(F)F)C(F)(F)F)cc1)c1ccc(Cl)c2nonc12, the Potency was inconclusive: 32.6 µM [cytotoxic, single point]. With CCCN(CC(=O)Nc1ccc(OC)c(OC)c1)CC(=O)Nc1ccc(F)c(F)c1F the Potency was inconclusive: 2.06 µM [cytotoxic, full curve]. With Cc1ccc(Nc2nc(N)c3ccccc3n2)cc1C the Potency was inconclusive: 8.2 µM [cytotoxic, partial curve]. For O=C(NC1CC1)c1sc2cc(Cl)ccc2c1Cl, the Potency was inconclusive: 29.1 µM [cytotoxic, partial curve, poor fit]. In the case of O=C(CSc1nnnn1-c1ccccc1)c1ccc(O)cc1O, the Potency is reported as inconclusive: 20.6 µM [cytotoxic, single point]. In the case of COc1ccccc1-c1nnc(SC(C(=O)c2c[nH]c3ccccc23)c2ccccc2)n1C (stereo unspecified), the Potency is reported as inconclusive: 25.9 µM [cytotoxic, single point]. With CCC(=O)N1CCN(c2ccc(Cl)cc2NC(=S)NC(=O)c2ccco2)CC1 the Potency was inconclusive: 4.61 µM [cytotoxic, full curve]. For CC(=O)Nc1cc(-c2ccc(N3CCN(C)CC3)cc2)cn2c(-c3ccc(F)c(Cl)c3)cnc12, the Potency was inconclusive: 29.1 µM [cytotoxic, single point]. For CCn1c(=O)c(=O)[nH]c2cc(C(=O)NC(C)c3ccc(S(N)(=O)=O)cc3)ccc21 (stereo unspecified), the Potency was inconclusive: 2.91 µM [cytotoxic, partial curve, poor fit]. In the case of Cc1cc(Nc2ccccc2O)nc(C)n1, the Potency is reported as inconclusive: 25.9 µM [cytotoxic, single point]. In the case of Cc1ccc(C)c(S(=O)(=O)n2nc(C)c(S(=O)(=O)N3CCCCCC3)c2C)c1, the Potency is reported as inconclusive: 29.1 µM [rising, single point]. With Cc1ccc(C(=O)COC(=O)C2C3C=CC(C3)C2C(=O)OCC(=O)c2ccc(C)c(C)c2)cc1C (stereo unspecified) the Potency was active: 16.4 µM. For COc1cccc(NC(=O)c2ccc(-n3cnnn3)cc2)c1, the Potency was “inactive”. In the case of CCCOc1cccc(C(=O)NC(=S)Nc2cccc(C(F)(F)F)c2)c1, the Potency is reported as “inactive”. In the case of CC(O)CNc1ccc(-c2nn(C)c(=O)c3ccccc23)cc1[N+](=O)[O-] (stereo unspecified), the Potency is reported as active: 6.51 µM. For CCCC(=O)Nc1c2c(nn1-c1ccc(OC)cc1)CS(=O)C2 (stereo unspecified), the Potency was inconclusive: 20.6 µM [rising, partial curve, poor fit]. With Cc1ccc(Sc2cc(C)nc(-c3ccccn3)n2)cc1 the Potency was inconclusive: 8.2 µM [cytotoxic, partial curve, poor fit]. With COc1ccc(-c2cc(C(=O)NCCN3CCOCC3)c3ccccc3n2)c(OC)c1 the Potency was inconclusive: 6.51 µM [cytotoxic, partial curve, poor fit]. With CN(CC(=O)NCc1ccccc1F)S(=O)(=O)c1ccc(Cl)cc1 the Potency was inconclusive: 16.4 µM [cytotoxic, partial curve, poor fit]. For N#CCCC(CCC#N)(CCC#N)c1cc[n+](CCc2ccccn2)cc1, the Potency was inconclusive: 29.1 µM [rising, single point]. For CCOC(=O)C1=C(C)Nc2[nH]c(=O)[nH]c(=O)c2C1c1cccs1 (stereo unspecified), the Potency was inconclusive: 20.6 µM [rising, partial curve]. For COc1ccc(OC)c(NC(=O)NNC(=O)CCCOc2ccc(Cl)cc2C)c1, the Potency was inconclusive: 29.1 µM [cytotoxic, single point]. For Cc1nn(CC(=O)OCC(=O)Nc2ccccc2[N+](=O)[O-])c(C)c1[N+](=O)[O-], the Potency was inconclusive: 29.1 µM [rising, single point]. With CN1CCN(c2ccc(Cl)cc2NC(=O)CN2C(=O)NC(C)(c3ccccc3)C2=O)CC1 (stereo unspecified) the Potency was “inactive”. For COc1ccccc1Nc1ccc(NC(=O)c2cccc([N+](=O)[O-])c2C)cc1, the Potency was inconclusive: 29.1 µM [cytotoxic, single point]. With CCCOc1ccc(C2C(=O)N(C3CCCCCC3)CC(=O)N2Cc2ccco2)cc1OC (stereo unspecified) the Potency was active: 1.3 µM. For Cc1nn(-c2ccccn2)c2nc(-c3cccs3)cc(C(=O)NCc3ccco3)c12, the Potency was inconclusive: 29.1 µM [cytotoxic, single point]. With CC(=O)Nc1ccc(SCC(=O)c2cc(C)n(-c3ccccc3)c2C)cc1 the Potency was inconclusive: 29.1 µM [cytotoxic, single point]. In the case of O=C(CS(=O)(=O)c1cn(Cc2cccc(F)c2)c2ccccc12)N1CCOCC1, the Potency is reported as active: 23.1 µM. With COc1ccc(-n2cc(-c3ccccc3)c3c(N4CC(C)OC(C)C4)ncnc32)cc1 (stereo unspecified) the Potency was inconclusive: 20.6 µM [cytotoxic, single point]. For COc1ccc(C(=O)N(Cc2ccccc2)c2cccc(C)c2)c(OC)c1OC, the Potency was inconclusive: 10.3 µM [cytotoxic, partial curve]. With COc1cccc(NC(=O)Nc2cccn(Cc3ccccc3)c2=O)c1 the Potency was inconclusive: 29.1 µM [cytotoxic, single point]. For O=C(CN1C(=O)NC2NC(=O)NC21)N/N=C/c1ccc(F)cc1 (stereo unspecified), the Potency was inconclusive: 29.1 µM [rising, single point]. For Cc1ccc(OCCCCN2CCCCC2)c(C)c1, the Potency was “inactive”. In the case of CC(C)OC(=O)c1cc(NC(=O)c2nn(C)cc2Br)cc(C(=O)OC(C)C)c1, the Potency is reported as inconclusive: 0.651 µM [cytotoxic, full curve, poor fit]. In the case of Cc1c(CCCN)c2ccccc2n1Cc1ccccc1, the Potency is reported as inconclusive: 20.6 µM [cytotoxic, single point]. For Cc1cc(Br)ccc1NC(=O)CNC(=O)COc1ccccc1C, the Potency was inconclusive: 0.0366 µM [rising, full curve]. In the case of Cn1c2ccccc2c(=O)c2cc(C#CC3(O)CCCCC3)ccc21, the Potency is reported as inconclusive: 18.4 µM [cytotoxic, partial curve, poor fit].
